In US20030087319A1:
No constants are given. Whether binding was seen depends on the method and setting. Some results given as binding are weak or reduced against the parent protein; the word gives no strength.

The chains behind the UniProt entries cited, without tags or fusion partners.
UniProt O15392: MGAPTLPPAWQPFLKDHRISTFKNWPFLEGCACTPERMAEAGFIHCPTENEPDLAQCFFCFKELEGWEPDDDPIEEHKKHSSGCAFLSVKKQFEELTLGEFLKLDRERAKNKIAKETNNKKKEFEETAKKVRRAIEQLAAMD

Target: T1, recombinant active caspase-3 (PharMingen) (UniProt P42574)
T1 sequence (looked up): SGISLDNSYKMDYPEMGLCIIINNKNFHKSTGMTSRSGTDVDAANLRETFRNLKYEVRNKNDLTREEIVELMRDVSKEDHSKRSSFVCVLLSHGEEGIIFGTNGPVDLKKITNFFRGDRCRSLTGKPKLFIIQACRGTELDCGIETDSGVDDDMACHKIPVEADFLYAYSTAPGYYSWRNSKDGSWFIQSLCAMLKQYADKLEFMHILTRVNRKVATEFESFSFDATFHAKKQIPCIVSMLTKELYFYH
Assay: in vitro binding, 35S-labeled survivin with recombinant active caspase-3, immunoprecipitation with caspase-specific antibody, SDS-PAGE, autoradiography

With “survivin (35[S]-methionine-labeled, in vitro translated) (from UniProt O15392 1-142)” the binding was “binds”.
